Assay results as given in publication PMC7305180.
Results are given in words; binding and its absence hold for the method and conditions named. In cells and extracts the contact can be indirect. Some binding calls cover weakened binding; strength is not graded here.

The chains behind the UniProt entries cited, without tags or fusion partners.
UniProt P12814: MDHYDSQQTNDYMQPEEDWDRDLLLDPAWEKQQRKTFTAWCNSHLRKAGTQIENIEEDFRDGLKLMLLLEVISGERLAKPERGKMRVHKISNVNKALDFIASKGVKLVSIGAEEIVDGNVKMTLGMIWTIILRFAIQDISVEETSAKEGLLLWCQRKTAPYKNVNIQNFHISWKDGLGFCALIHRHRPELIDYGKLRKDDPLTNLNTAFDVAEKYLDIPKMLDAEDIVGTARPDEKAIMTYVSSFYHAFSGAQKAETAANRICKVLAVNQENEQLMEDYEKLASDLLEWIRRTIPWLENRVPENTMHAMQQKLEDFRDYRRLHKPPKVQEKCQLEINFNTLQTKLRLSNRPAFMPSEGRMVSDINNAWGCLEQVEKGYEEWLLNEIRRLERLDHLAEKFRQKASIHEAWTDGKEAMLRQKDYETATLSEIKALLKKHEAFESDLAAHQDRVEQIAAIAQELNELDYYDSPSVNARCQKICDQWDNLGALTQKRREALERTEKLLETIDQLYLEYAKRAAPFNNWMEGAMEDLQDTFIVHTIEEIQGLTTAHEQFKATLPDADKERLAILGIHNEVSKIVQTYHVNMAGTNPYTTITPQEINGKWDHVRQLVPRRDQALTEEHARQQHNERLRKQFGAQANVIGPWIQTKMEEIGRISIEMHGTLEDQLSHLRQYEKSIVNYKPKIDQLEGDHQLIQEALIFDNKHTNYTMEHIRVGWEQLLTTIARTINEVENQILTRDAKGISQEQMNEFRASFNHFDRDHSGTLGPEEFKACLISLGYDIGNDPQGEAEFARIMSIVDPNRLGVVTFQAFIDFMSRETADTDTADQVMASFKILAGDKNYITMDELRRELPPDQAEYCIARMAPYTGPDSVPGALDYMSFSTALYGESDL
UniProt O43707: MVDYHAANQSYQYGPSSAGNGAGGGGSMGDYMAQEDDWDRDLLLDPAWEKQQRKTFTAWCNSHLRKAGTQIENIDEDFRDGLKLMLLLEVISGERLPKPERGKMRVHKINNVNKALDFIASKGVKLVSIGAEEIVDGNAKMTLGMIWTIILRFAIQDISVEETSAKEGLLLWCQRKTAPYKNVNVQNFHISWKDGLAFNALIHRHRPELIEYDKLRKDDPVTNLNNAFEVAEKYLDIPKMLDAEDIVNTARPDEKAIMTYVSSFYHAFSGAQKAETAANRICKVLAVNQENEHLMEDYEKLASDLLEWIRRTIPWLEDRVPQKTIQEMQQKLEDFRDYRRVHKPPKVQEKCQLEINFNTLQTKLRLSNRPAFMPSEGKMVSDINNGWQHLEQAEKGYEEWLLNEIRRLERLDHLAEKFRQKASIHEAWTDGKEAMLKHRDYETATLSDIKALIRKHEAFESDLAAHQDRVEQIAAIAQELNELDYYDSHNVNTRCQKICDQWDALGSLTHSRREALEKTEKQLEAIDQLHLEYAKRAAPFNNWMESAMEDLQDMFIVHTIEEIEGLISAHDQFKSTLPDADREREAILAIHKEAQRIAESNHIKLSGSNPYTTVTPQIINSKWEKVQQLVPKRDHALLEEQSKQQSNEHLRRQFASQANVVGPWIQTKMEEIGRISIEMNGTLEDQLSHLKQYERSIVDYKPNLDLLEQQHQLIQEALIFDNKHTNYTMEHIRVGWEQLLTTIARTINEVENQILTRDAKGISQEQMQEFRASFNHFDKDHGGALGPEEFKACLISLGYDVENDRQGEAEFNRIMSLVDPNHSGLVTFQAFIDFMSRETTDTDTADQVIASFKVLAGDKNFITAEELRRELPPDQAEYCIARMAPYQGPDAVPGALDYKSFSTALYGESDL

Biological target: α-Actinin 1 (human (endogenous in PC9)) (UniProt P12814)
Assay: cross-linking; in situ formaldehyde cross-linking of intact human PC9 cells (1, 2, 3, 4.5 or 6% FA in PBS, 15 min at 37 °C), lysis, trypsin digest, SCX enrichment, cross-linked peptide pairs identified by LC-MS/MS (12 and 24 Da cross-linker masses)

binding: binds
Substance: α-Actinin 4 (from UniProt O43707 1-911)
